Values quoted from earlier work in patent US10570116B2, “1,4-dicarbonyl-piperidyl derivatives” (Merck Patent GmbH, priority 2015, dated 2020).
At least one structure is not confirmed: it was looked up by name or label, or the drawing left a doubt.

Target: Tankyrase
Conditions: prior art value; read-out: cellular assay: EC50; cited from earlier work

For `COc1ccccc1NC(=O)c1ccc(NC(=O)CCc2nc3ccccc3c(=O)[nH]2)cc1` [quinazolinone], the EC50 is listed as 0.32 µM.
